{
  "sequences": {"note": "Chains of the proteins cited; added tags and fusions are not shown.", "UniProt P61289": "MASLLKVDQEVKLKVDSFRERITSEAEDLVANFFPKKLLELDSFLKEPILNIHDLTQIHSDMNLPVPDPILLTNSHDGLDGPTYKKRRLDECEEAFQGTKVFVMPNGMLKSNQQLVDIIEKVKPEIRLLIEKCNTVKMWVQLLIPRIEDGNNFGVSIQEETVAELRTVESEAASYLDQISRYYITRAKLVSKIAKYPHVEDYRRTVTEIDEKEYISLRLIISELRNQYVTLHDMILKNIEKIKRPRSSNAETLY"},
  "source": "paper PMC11550803",
  "target": "T1, FDPS (farnesyl diphosphate synthase), as used in the co-IP (UniProt P14324)",
  "T1 sequence": "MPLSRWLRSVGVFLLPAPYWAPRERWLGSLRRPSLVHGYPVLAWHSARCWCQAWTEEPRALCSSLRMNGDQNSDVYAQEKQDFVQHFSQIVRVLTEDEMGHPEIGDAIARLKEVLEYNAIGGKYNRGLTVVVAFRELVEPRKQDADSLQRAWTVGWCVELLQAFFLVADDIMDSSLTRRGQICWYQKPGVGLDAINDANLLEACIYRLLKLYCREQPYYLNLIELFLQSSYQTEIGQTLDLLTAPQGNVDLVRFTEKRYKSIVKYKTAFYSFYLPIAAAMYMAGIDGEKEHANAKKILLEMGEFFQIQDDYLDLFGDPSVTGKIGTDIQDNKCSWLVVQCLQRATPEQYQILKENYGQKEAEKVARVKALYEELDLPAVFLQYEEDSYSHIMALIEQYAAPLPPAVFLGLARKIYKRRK",
  "experiment": "co-IP; BeaverBeads Protein A magnetic beads with 1 µg antibody; cell lysates incubated overnight at 4 °C; washed three times with Triton X-100 buffer; immunoblot",
  "note": "Results are given in words; binding and its absence hold for the method and conditions named. Binding seen in cells or lysates may run through a third protein. Some entries that bind do so weakly or less than the wild type.",
  "data": [
    {"substance": "PSME3, as used in the co-IP (from UniProt P61289 1-254)", "values": [
      {"measurement": "binding", "value": "binds"}
    ]}
  ]
}
